According to the supplement of paper PMC10849652:
Some of the results follow.

By UniProt entry, the sequences of proteins in these tests, tags left out. Where a name states a change or a piece, a line headed by the entry shows the natural chain unless it says otherwise.
UniProt Q9BPX6: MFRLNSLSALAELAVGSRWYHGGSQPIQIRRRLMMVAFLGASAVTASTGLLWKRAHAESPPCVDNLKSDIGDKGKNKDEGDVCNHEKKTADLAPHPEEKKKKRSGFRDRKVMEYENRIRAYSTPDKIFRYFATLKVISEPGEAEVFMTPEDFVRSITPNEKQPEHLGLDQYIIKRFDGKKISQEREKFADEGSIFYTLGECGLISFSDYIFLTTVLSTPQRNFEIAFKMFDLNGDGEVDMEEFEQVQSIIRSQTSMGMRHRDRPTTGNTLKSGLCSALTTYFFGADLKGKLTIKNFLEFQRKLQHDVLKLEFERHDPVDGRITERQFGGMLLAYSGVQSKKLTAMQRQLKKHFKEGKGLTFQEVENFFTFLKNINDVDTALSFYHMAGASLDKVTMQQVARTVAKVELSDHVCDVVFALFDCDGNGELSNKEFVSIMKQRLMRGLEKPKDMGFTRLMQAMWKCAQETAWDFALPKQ
UniProt Q8IY33: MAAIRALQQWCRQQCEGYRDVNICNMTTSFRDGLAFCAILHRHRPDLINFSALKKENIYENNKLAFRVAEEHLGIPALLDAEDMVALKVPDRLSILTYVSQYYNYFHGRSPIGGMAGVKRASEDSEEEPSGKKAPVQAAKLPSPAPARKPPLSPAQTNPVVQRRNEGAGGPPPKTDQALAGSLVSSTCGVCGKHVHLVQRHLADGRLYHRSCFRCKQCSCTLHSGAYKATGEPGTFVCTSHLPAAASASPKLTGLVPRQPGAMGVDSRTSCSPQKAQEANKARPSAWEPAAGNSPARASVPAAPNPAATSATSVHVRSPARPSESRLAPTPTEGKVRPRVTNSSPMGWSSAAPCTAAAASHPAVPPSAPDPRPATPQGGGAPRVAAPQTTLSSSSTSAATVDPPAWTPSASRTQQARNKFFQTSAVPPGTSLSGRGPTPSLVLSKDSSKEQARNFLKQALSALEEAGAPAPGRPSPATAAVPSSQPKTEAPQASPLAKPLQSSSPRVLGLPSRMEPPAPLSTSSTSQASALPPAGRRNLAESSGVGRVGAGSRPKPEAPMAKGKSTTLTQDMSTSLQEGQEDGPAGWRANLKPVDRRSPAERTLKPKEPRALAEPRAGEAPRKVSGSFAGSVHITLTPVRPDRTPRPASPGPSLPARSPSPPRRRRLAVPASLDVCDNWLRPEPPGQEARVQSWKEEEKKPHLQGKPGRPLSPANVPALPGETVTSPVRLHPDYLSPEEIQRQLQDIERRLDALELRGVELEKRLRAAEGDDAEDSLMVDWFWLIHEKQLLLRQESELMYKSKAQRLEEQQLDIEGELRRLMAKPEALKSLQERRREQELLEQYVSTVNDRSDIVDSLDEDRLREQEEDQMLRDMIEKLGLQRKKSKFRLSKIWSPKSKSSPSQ
UniProt O95563: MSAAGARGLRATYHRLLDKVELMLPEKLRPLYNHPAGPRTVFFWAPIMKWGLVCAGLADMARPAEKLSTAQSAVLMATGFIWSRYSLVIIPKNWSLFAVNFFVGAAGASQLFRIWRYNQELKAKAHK
UniProt P34949: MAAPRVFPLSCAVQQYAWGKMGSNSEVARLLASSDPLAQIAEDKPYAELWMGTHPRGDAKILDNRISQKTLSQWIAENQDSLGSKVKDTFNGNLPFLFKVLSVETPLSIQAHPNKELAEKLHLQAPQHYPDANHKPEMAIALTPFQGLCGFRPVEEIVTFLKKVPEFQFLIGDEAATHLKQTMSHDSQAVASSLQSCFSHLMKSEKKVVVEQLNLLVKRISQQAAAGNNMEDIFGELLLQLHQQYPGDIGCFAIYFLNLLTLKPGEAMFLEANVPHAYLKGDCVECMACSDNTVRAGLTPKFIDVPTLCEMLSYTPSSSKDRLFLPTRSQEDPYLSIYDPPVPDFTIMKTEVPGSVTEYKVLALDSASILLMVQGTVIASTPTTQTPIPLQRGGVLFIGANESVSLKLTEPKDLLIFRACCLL
UniProt Q5JRA6: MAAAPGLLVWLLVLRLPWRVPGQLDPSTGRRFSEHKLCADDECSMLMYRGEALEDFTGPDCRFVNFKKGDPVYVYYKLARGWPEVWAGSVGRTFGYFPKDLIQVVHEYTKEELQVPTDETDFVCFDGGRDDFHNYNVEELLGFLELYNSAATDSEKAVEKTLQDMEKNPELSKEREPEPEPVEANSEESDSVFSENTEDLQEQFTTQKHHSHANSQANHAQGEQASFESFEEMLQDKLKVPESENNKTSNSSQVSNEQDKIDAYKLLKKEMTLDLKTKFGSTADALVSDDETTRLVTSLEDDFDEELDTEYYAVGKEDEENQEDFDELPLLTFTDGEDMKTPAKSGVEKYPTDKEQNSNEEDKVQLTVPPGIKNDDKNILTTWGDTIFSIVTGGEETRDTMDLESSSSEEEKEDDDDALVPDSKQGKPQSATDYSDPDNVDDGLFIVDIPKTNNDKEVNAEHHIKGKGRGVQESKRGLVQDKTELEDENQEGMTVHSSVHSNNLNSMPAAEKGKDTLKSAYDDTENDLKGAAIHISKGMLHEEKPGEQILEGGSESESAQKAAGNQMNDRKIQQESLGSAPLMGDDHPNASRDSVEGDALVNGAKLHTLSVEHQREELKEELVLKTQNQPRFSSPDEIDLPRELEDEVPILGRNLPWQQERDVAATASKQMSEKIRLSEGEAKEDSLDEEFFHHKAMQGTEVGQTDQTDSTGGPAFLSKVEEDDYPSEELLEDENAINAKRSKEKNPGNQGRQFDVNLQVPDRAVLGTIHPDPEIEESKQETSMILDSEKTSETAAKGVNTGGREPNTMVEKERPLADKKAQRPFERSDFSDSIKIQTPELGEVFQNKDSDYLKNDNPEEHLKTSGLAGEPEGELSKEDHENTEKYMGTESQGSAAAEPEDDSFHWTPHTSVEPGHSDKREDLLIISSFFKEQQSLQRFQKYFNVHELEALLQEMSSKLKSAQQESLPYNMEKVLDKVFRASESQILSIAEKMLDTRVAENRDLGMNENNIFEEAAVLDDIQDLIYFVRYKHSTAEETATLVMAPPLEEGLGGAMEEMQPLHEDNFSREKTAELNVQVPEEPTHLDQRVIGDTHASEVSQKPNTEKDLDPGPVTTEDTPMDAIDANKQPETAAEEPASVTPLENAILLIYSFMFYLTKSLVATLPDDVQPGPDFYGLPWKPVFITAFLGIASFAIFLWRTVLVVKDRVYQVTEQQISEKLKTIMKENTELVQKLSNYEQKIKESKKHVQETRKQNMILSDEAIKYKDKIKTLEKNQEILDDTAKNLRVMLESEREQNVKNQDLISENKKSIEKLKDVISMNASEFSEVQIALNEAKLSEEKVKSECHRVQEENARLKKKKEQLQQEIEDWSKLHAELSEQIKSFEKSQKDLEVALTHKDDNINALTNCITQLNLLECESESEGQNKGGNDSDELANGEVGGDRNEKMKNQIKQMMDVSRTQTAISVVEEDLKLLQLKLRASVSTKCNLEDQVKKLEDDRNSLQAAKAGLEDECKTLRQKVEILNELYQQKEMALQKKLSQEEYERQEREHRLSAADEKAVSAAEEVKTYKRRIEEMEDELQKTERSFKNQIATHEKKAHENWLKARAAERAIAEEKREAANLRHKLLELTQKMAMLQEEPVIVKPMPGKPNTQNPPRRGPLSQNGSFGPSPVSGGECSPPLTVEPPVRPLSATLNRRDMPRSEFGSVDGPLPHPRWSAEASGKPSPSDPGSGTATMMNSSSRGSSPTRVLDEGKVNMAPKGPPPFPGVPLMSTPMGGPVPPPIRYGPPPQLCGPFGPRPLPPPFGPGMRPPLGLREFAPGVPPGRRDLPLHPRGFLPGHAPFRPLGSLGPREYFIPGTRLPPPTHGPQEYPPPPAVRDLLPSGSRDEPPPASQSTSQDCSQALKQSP
UniProt Q8N108: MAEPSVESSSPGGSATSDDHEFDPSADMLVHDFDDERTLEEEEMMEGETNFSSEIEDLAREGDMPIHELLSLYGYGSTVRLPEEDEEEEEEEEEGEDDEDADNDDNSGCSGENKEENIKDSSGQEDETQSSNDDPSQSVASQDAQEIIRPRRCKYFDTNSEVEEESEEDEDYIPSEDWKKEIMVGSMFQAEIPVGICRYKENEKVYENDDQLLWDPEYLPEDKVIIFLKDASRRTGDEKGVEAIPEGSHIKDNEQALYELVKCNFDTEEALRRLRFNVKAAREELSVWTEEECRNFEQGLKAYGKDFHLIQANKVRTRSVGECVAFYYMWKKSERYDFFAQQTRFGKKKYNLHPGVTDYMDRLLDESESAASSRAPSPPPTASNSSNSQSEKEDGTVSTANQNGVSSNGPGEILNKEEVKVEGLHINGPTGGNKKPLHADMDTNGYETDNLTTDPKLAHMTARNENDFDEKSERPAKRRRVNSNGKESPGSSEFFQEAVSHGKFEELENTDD
UniProt Q7L9L4: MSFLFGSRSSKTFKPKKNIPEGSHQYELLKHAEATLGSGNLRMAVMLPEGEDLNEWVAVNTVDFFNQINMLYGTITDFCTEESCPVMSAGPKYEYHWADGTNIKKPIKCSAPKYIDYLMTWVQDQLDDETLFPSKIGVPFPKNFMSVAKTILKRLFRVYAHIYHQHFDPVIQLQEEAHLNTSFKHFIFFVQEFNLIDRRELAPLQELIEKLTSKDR
UniProt Q7RTP6, whole entry, looked up: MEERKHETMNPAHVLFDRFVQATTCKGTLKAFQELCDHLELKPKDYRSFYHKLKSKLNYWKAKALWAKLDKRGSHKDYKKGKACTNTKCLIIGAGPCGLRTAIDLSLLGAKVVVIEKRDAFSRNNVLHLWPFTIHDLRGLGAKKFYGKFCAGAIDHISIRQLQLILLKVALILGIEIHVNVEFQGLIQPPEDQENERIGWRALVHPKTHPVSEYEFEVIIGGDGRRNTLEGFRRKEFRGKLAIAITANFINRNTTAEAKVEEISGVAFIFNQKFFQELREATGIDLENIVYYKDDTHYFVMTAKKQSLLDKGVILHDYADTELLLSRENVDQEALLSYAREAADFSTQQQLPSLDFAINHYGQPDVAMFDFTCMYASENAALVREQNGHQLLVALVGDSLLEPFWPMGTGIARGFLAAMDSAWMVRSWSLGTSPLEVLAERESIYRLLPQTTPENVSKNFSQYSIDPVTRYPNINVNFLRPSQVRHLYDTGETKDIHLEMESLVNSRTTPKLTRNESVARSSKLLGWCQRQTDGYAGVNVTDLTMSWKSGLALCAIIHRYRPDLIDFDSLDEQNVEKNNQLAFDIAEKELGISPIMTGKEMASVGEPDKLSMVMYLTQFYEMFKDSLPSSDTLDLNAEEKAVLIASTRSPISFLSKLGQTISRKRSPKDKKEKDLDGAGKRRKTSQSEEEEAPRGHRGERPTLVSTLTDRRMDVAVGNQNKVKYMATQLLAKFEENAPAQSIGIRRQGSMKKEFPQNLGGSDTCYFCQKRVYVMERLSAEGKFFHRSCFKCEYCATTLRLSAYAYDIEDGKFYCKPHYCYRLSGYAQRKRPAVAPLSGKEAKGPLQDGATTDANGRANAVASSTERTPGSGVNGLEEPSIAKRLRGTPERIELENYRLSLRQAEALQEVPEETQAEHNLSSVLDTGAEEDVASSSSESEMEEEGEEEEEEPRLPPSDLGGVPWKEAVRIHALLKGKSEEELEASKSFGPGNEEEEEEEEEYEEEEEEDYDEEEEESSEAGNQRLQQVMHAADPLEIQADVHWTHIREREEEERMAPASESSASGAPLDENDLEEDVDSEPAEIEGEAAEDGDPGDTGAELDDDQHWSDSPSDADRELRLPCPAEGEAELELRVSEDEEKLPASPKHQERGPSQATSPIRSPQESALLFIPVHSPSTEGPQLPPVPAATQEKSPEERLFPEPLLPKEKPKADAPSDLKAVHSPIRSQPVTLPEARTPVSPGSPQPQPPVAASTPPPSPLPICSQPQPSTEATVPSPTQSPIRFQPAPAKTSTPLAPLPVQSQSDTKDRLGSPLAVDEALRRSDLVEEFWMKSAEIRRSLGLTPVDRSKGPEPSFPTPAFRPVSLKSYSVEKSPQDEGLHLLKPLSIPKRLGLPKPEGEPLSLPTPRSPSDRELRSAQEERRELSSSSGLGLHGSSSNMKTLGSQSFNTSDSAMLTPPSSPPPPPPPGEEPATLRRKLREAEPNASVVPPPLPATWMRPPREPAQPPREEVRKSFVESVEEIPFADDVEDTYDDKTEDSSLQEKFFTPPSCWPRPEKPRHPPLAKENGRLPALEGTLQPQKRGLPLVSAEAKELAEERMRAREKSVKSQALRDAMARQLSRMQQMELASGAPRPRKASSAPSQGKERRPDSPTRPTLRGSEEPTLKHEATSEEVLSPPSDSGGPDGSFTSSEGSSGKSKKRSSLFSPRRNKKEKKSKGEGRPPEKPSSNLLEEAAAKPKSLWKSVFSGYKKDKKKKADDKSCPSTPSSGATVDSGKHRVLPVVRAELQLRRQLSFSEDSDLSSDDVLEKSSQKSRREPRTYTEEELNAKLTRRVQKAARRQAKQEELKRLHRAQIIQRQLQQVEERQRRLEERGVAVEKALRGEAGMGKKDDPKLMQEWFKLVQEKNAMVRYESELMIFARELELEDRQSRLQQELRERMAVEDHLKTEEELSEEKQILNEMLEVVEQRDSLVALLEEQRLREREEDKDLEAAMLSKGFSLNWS

Experiments:
Assay in all cases: log2 fold change, soluble protein after heating vs DMSO (PISA); higher = thermal stabilisation; K562 lysate, 10 uM; active = over 0.2 and 3.5 SD of the protein, either way, in both replicates (recomputed)
[1] = compound: C1=CC=C(C=C1)[C@H](COC2=CC3=C(C=C2)NC(=O)N3)NC(=O)C4=CC=CN(C4=O)CC5=CC(=C(C=C5)F)F
Procedure, shortened: (§1)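 A 30 min treatment with 10 μM compound was applied to crude K562 extract at 1 mg/mL protein in PBS pH 7.4 with 1 mM MgCl2. Heating for 3 min spanned 48°C-58°C, after which aliquots were pooled, adjusted to 0.5% NP-40 at 4°C and spun at 21,000xg for 90 min. TMTpro 16plex LC-MS/MS of the supernatant, with channel sums equalised, gave values recorded as log-two fold change in thermal stability against solvent controls, from duplicates.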

[2] = compound: CC1=C(SC2=C1C(=N[C@H](C3=NN=C(N32)C)CC(=O)N)C4=CC=C(C=C4)Cl)C
Procedure, shortened: as §1

[3] = compound: CC1=C2C(=CC=C1)N=C(N(C2=O)C3=CC=CC=C3C)CN4C=NC5=C(N=CN=C54)N
Procedure, shortened: as §1

[4] = compound: Cc1sc2c(c1C)C(c1ccc(Cl)cc1)=N[C@@H](CC(=O)OC(C)(C)C)c1nnc(C)n1-2
Procedure, shortened: as §1

[5] = compound: c1ccc([C@@H]2C[C@H]2NC2CCNCC2)cc1
Procedure, shortened: as §1

Measured: log2 fold change

MICU1 isoform 3 (UniProt Q9BPX6)
inactive: [1] -0.018 | [2] 0.027 | [3] -0.035 | [4] -0.043 | [5] 0.196

MICB, A0A140T979
inactive: [1] 0.028 | [2] -0.012 | [3] -0.003 | [4] 0.026 | [5] 0.019

MICALL2 (UniProt Q8IY33)
inactive: [1] -0.014 | [2] 0.026 | [3] 0.03 | [4] -0.05 | [5] -0.006

MPC2 (UniProt O95563)
inactive: [1] 0.015 | [2] -0.001 | [3] 0.007 | [4] -0.028 | [5] -0.121

MPI (UniProt P34949)
inactive: [1] 0.023 | [2] -0.014 | [3] 0.033 | [4] -0.023 | [5] 0.083

MIA3 (UniProt Q5JRA6)
inactive: [1] -0.004 | [2] -0.023 | [3] 0.053 | [4] -0.009 | [5] 0.019

MIER1 isoform 12 (UniProt Q8N108)
inactive: [1] 0.043 | [2] 0.001 | [3] -0.001 | [4] -0.005 | [5] -0.013

MOB1B isoform 2 (UniProt Q7L9L4)
inactive: [1] 0.028 | [2] -0.036 | [3] 0.005 | [4] -0.042 | [5] -0.057

MICAL3 (UniProt Q7RTP6)
inactive: [1] 0.033 | [2] -0.007 | [3] 0.022 | [4] -0.024 | [5] -0.041
